The nature of the series: Trypsin sensitivity: trypsin or mock incubation followed by UMR-106 adenylate cyclase assay. The note with it: trypsin:PTH 1:500 (w:w), 4 hours, room temperature; for Relative Resistance (RR): RR = TS native/TS variant; for Trypsin Sensitivity (TS): ratio EC50 trypsin/EC50 mock, average of 5 experiments. The method, then:
PTH variants having an "improved stability in the presence of trypsin" are degraded by trypsin at a rate that is slower than a similarly treated native PTH control. An assay suitable for identifying a reduced tryptic digestion rate entails a two step procedure, in which a PTH variant and a native PTH control are separately incubated with trypsin for a defined period, and are then assayed for activity in the osteosarcoma-based assay just described. Protocols suitable for assaying trypsin sensitivity are described in the literature and are outlined in the examples herein.
To measure the sensitivity of a compound (native PTH or variants) to digestion with trypsin, duplicate incubations were established for each compound in either the presence of trypsin ("Trypsin Incubation") or the absence of trypsin ("Mock Incubation"). For example, a lyophilized aliquot of PTH (or variant) was solubilized for 20 minutes at room temperature in 10 mM acetic acid at a final concentration of 1 mg/mL (50 μg PTH or variant plus 50 μL 10 mM acetic acid). Following complete solubilization in acetic acid, the sample was diluted with buffer (50 mM Tris. HCl pH 7.5, "Tris buffer", to a final concentration of 1 μg/20.82 μL). A fresh trypsin stock solution was prepared for each experiment by solubilizing trypsin in Tris buffer to a final concentration of 10 μg/mL (20 μg trypsin plus 2 mL Tris buffer). The activity of the trypsin stock solution was established spectrophometrically at the beginning and the end of each experiment by monitoring its ability to cleave the synthetic substrate N-α-benzoyl-L-arginine ethyl ether (BAEE). The appearance of the cleavage product was monitored as a function of time at 253 nm. A fresh stock solution of soybean trypsin inhibitor (SBTI) was prepared in Tris buffer at a final concentration of 10 μg/mL. The ability of the SBTI stock solution to quench the activity of the trypsin stock solution was verified by the addition of an equal weight of SBTI to trypsin in the trypsin/BAEE mixture (i.e. 5 μg trypsin in trypsin/BAEE solution plus 5 μg SBTI solution).
Parallel trypsin and mock incubations were established as follows. Identical amounts of the PTH or variant sample in Tris buffer were added to each of two tubes (416.4 μL of PTH or variant sample in Tris buffer at 1 μg/20.82 μL for a total of 20 μg of PTH or variant in each of two tubes). The trypsin incubation received an amount of trypsin stock solution in Tris buffer so that the final weight of trypsin to PTH (or variant) was 1:500 (w:w) (e.g. 0.4 μg of trypsin was added to 20 μg of PTH or variant or 4 μL of trypsin stock solution containing 10 µg/mL was added to 416.2 μL of PTH or variant solution containing 1 μg/20.82 μL). The mock incubation received Tris buffer alone lacking trypsin in an amount equal to the volume of trypsin used for the parallel incubation (e.g. 4 μL of Tris buffer added to 416.2 μL of PTH or variant solution containing 1 μg/20.82 μL). The parallel tubes were then incubated for 4 hours at room temperature and were then "quenched" by the addition of an amount of SBTI sufficient to inhibit completely the trypsin (4 μL of SBTI solution in Tris buffer at a concentration of 10 μg SBTI/mL was added to each tube). A portion of each of the incubation mixtures was used to construct a series of dilutions of PTH (or variant) to test in the UMR-106 cell adenylate cyclase assay. Particularly, the quenched incubations were diluted appropriately with assay buffer to a final concentration of 5×10^-7 M (200 μL of quenched sample described above containing PTH or variant at 5×10^-6 M was diluted 10-fold with 1800 μL assay buffer). Appropriate serial dilutions (from 5×10^-7 M to 3×10^-11 M) were made with assay buffer for the trypsin incubation samples and for the mock incubation samples. Dose-response curves were generated and the relevant EC50 values were calculated. EC50^trypsin and EC50^mock correspond to the EC50 values for the trypsin and mock incubations, respectively. […]

Positions count from the first letter of the chain named.

For “human PTH(1-84) [hPTH, reference compound]”, the “Relative Resistance (RR)” value worked out at 1.0 and the “Trypsin Sensitivity (TS)” value came to 12 ± 4.

B1: [His^25 ]hPTH (protein, UniProt P01270 32-115, looked up, variant R25H)
Parathyroid hormone: SVSEIQLMHNLGKHLNSMERVEWLHKKLQDVHNFVALGAPLAPRDAGSQRPRKKEDNVLVESHEKSLGEADKADVNVLTKAKSQ
With B1, the “Relative Resistance (RR)” value was 2.1 ± 0.9 and the “Trypsin Sensitivity (TS)” value amounted to 7 ± 3.

B2: [His^25 His^26 Leu^27 ]hPTH (protein, UniProt P01270 32-115, looked up, variant R25H K26H K27L)
Parathyroid hormone: B1 Parathyroid hormone with K26H, K27L
For B2, the “Relative Resistance (RR)” value is 5.1 ± 0.7 and the “Trypsin Sensitivity (TS)” value is 2.4 ± 0.5.

These data come from patent US5382658A, “Stability-enhanced variants of parathyroid hormone” (Allelix Biopharmaceuticals Inc., priority 1992, dated 1995).
